# Reference: the supplement of paper PMC3334620
# Whole data set: some 33,000 sequences, median “E-score (-0.5 to 0.5)” near -8e-05, cut for the highest 2% near 0.23. This is one part of the list.
# Target: T1, Nrg2 (UniProt P38082)
# T1 sequence: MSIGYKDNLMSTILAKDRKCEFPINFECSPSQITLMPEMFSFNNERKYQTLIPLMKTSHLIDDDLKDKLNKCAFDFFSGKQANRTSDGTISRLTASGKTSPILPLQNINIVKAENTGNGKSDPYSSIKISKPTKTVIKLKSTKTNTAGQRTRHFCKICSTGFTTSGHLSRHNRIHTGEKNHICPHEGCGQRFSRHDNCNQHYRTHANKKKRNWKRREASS
# Test: PBM E-score (8-mer binding enrichment) (E-score (-0.5 to 0.5)); higher = stronger / more preferred TF binding
# Conditions: protein concentration: 100 nM; construct: GST-full length
# Outline: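 Masliner-normalised scans of fluorescent anti-GST signal were the basis for scoring. That signal came from GST-tagged yeast transcription factors applied at about 100-200 nM to double-stranded universal all-10-mer Agilent arrays on fresh or once-stripped slides. Each ungapped eight-base word, pooled with its reverse complement, received an E-score from the Universal PBM Analysis Suite.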
row,Sequence,PBM E-score
1,GCGCCGGA,-0.0477
2,GGATCTGA,-0.0992
3,ATTCGTCA,0.173
4,ACCCTGAC,0.334
5,AGTGTGCG,0.128
6,CCTTAGGC,-0.167
7,AGTATCTA,0.2
8,ACGATTCC,0.0207
9,ATGGTGTC,0.0375
10,GTTATTGA,0.122
11,ATGGTATC,0.135
12,CAATGGGA,-0.072
13,CATAGGCA,-0.123
14,CGCCTAGA,-0.0501
15,GGTCCTAA,-0.0628
16,TCCCCGAA,-0.0516
17,GGGAAGTA,0.0865
18,CAATCGCA,0.133
19,ACGACTCA,-0.122
20,CGCCCACG,-0.0862
21,CCGCTGTA,-0.0218
22,GACGCATC,-0.0555
23,TTAATTAA,0.198
24,ATGGGCCG,-0.0605
25,GTCACTTA,0.147

row,Sequence,PBM E-score
1,AAGATTAT,0.0533
2,GATTATTA,0.0599
3,AATTTAGA,0.0528
4,TAATACAA,0.235
5,CCGGGTCC,-0.171
6,TTCTACAA,0.11
7,GTTGCAGA,0.0197
8,TCCCTTAA,0.106
9,TAGGTATA,0.121
10,CCGTATTA,0.047
11,GAATGGAC,0.0299
12,AAATATGC,0.0185
13,CCAACCGC,0.159
14,AAATCCCA,-0.0938
15,TCCGCCCA,-0.0972
16,GGTGGCTA,-0.0197
17,ATAAGCCG,-0.0617
18,GCGTTCAA,-0.04
19,CTTAAATC,-0.0502
20,TCAAGTAA,-0.0497
21,CTCGTTCA,0.0156
22,TGGCAAAA,0.0813
23,CCTAAAAA,-0.00277
24,ATCCCAGG,-0.0419
25,CCAGTTAC,-0.146

row,Sequence,PBM E-score
1,ACGAAGTG,0.064
2,ACCAGACT,-0.148
3,ACAATTAT,-0.00765
4,ATTTGTGG,0.204
5,ATCAACTG,0.086
6,ACAGCCTA,0.133
7,GCCGTTAA,0.0444
8,AAGAGGTC,0.0167
9,CTTTGCAC,0.00168
10,ACATAGCG,-0.0626
11,GCATCCTA,-0.0981
12,CAGGAGAC,0.0108
13,CCCCTATC,0.0154
14,AGTCCGTA,-0.156
15,GAAGAGCC,-0.103
16,ATATAGTG,0.241
17,ACTCGCAC,-0.0805
18,ACCGCACG,-0.00283
19,AATGTTCC,0.0459
20,GTTCACTA,-0.0719
21,CAATTGCG,0.133
22,CCCGTCGG,-0.16
23,GCCCCAAC,0.126
24,AGGTCATC,-0.1
25,GAAGAGCA,-0.175

# Some of the entries so far, as tab-separated lines:
row	Sequence	PBM E-score
1	ACGAAGTG	0.064
2	ACCAGACT	-0.148
4	ATTTGTGG	0.204
10	ACATAGCG	-0.0626
12	CAGGAGAC	0.0108
22	CCCGTCGG	-0.16
25	GAAGAGCA	-0.175

# (next part)

row,Sequence,PBM E-score
1,ACGCGCAC,-0.0011
2,CTTGCTTA,-0.0295
3,CCACGCAA,-0.0726
4,CAAGAGCA,-0.0163
5,ATCCACCA,-0.122
6,GAAAAGGC,-0.168
7,ATATGCCA,0.137
8,AACCCGGT,-0.00724
9,TACACCGA,-0.14
10,TCAACAAA,0.118
11,GTGCCTGA,-0.18
12,AACACATA,0.113
13,ACACGGTA,0.00247
14,ACAACGGT,-0.0246
15,TAGCTGCA,-0.131
16,ATATGGGC,0.129
17,AAACGATG,0.0505
18,CCACCGAC,0.0138
19,AATCCTGC,-0.00651
20,AAAGAGAT,-0.0209
21,TACAGATA,0.0235
22,AGAATGAA,0.126
23,AGACGGTA,0.00245
24,TCGGCTAA,0.028
25,TAGTTGGA,0.0485

row,Sequence,PBM E-score
1,AACCCGTT,0.00318
2,GCTCAGAC,-0.0262
3,CACCCAGC,-0.224
4,ACTCGAGT,0.132
5,AAAACGGG,0.17
6,AGGCAGCC,-0.0143
7,AATTGGGG,-0.0654
8,GAAGCTCA,-0.0105
9,CGCCTCCC,-0.353
10,ACTACAGG,0.237
11,CAGAGGGC,-0.201
12,ACTCGGAC,0.0898
13,CTACCAGC,-0.165
14,ATGACGAA,0.0839
15,ACTAAGCT,-0.0663
16,CACCACCG,-0.145
17,AGACTGCC,-0.0787
18,AGCCAGTC,-0.183
19,CCGTGGGC,-0.114
20,AGAAGCGG,-0.182
21,AGTATGAA,0.254
22,AGTTTGAG,0.0901
23,GCAGTCGC,-0.0122
24,GGCCGTGA,0.0393
25,ATAGGGGA,0.0531

row,Sequence,PBM E-score
1,GACGTTGC,0.00555
2,ATATGCGC,0.209
3,ATATCATA,0.174
4,ATGAGGCA,0.00433
5,CATCCAAC,0.0443
6,CTTATAGC,-0.0991
7,AGGTACCC,-0.0334
8,AAGTCCCC,-0.117
9,CTATGAGC,-0.246
10,CATAGTAG,0.208
11,AAGTACGG,-0.0568
12,TAGCTAGA,-0.0761
13,GAGGGTGA,-0.0277
14,AACCCGGG,0.255
15,GAACAACC,0.157
16,CACGACTC,-0.0132
17,AATGCCGC,0.096
18,CGGCACCG,-0.00089
19,CAAACTTG,0.00038
20,ATTGTAAG,-0.226
21,CAATGCTC,-0.127
22,AACTGGCG,0.0501
23,AAGGTAAT,0.0937
24,CTACCTAG,-0.0659
25,CGAGGGAC,-0.0161

row,Sequence,PBM E-score
1,GATGTCGA,0.0615
2,CTAAGCCC,-0.219
3,TAGGAGCA,-0.0909
4,AGTTTGCG,0.0795
5,AATATTTC,0.21
6,CGATCGTA,0.0872
7,AAGAATGG,0.0626
8,CTGCCCTA,-0.0551
9,ACCCTGTG,0.289
10,CCCGGTTA,-0.197
11,ATACTCCA,0.111
12,GCAGCCAC,0.00093
13,CGAACTCA,0.00924
14,CGGCCGCA,0.0157
15,AAACCAGT,-0.0961
16,CAATCTCA,-0.042
17,AAACGCGT,0.0519
18,GCGGTTCC,-0.173
19,AACTCCAT,0.114
20,GATTCTAC,-0.0847
21,GTGATTAA,0.0746
22,AAAAGTCG,0.0204
